The source of these data is paper PMC3587604.

The target in assay [1] is T1, Prostate Secretory Protein of 94 amino acids (PSP94) (human) (UniProt P08118).
T1 sequence: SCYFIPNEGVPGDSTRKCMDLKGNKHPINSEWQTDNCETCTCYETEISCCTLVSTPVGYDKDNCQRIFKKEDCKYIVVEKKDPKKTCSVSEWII
The experiment in a line: co-IP; human seminal plasma (100 µg) diluted in PBS; anti-PAP or anti-PSP94 antibody with Protein G Sepharose; immunoblot with the other antibody; buffer control. On the technique in general: In western blotting, separated proteins are transferred to a membrane and probed.

Assay [2] has as its target T1, Prostate Secretory Protein of 94 amino acids (PSP94) (human). As to the kind of experiment: pull-down; PSP94 coupled to CNBr-activated Sepharose 4B; fraction II or III (20 µg in 300 µl of 50 mM PBS pH 7.2, 0.5% Triton X-100), pre-cleared on non-conjugated beads, 2 h at 37°C; eluted with 0.2 M glycine-HCl pH 2.8; eluate identified by silver stain with MALDI-TOF/TOF and by immunoblot; only the target purified.

Assay [3] has the same target. The experiment in a line: co-IP; fraction III (50 µg) in PBS-TX100, pre-cleared; anti-PAP or anti-PSP94 antibody with Protein G Sepharose overnight at 4°C; immunoblot with the other antibody; controls: isotype antibody, normal rabbit serum, buffer.
The target of assay [4] is T2, Prostatic Acid Phosphatase (PAP) (human) (UniProt P15309).
T2 sequence: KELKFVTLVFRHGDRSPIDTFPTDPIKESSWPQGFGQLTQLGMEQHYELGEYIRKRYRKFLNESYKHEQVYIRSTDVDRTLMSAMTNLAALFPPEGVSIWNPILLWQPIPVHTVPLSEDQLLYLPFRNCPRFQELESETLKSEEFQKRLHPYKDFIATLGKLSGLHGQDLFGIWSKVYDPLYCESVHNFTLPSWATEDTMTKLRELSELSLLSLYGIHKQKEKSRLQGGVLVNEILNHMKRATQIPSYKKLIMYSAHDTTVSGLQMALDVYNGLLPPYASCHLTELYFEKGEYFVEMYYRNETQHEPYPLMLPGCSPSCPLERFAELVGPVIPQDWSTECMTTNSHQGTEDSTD
The experiment in a line: co-IP; human seminal plasma (100 µg) diluted in PBS; anti-PAP or anti-PSP94 antibody with Protein G Sepharose; immunoblot with the other antibody; buffer control.

Assay [5] concerns the target T2, Prostatic Acid Phosphatase (PAP) (human). As to the kind of experiment: co-IP; fraction III (50 µg) in PBS-TX100, pre-cleared; anti-PAP or anti-PSP94 antibody with Protein G Sepharose overnight at 4°C; immunoblot with the other antibody; controls: isotype antibody, normal rabbit serum, buffer.
Assay [6] has as its target T3, pure PAP (US Biological) (human) (UniProt P15309).
T3 sequence: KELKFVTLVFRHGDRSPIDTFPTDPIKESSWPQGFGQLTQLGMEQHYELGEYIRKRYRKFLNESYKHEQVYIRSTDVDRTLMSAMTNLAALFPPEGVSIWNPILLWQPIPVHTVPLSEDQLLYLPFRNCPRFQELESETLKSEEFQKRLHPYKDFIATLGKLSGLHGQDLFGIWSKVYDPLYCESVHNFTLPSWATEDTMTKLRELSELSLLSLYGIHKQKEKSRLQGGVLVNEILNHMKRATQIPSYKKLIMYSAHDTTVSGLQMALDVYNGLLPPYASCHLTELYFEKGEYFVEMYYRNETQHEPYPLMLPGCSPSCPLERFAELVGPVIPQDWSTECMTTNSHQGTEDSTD
As to the kind of experiment: co-IP; pure PSP94 (500 ng) pre-incubated with pure PAP (500 ng) in vitro; immunoprecipitated with anti-PAP antibody, immunoblot with anti-PSP94 antibody; control without PAP; both purified.

Results are given in words; binding and its absence hold for the method and conditions named. For some of these results: In cells and extracts the contact can be indirect. Some results given as binding are weak or reduced against the parent protein; the word gives no strength.

B1: Prostatic Acid Phosphatase (PAP) (enzyme, UniProt P15309 33-386)
chain: KELKFVTLVFRHGDRSPIDTFPTDPIKESSWPQGFGQLTQLGMEQHYELGEYIRKRYRKFLNESYKHEQVYIRSTDVDRTLMSAMTNLAALFPPEGVSIWNPILLWQPIPVHTVPLSEDQLLYLPFRNCPRFQELESETLKSEEFQKRLHPYKDFIATLGKLSGLHGQDLFGIWSKVYDPLYCESVHNFTLPSWATEDTMTKLRELSELSLLSLYGIHKQKEKSRLQGGVLVNEILNHMKRATQIPSYKKLIMYSAHDTTVSGLQMALDVYNGLLPPYASCHLTELYFEKGEYFVEMYYRNETQHEPYPLMLPGCSPSCPLERFAELVGPVIPQDWSTECMTTNSHQGTEDSTD
For the molecule B1, the binding entry in assay [1], in assay [2] and in assay [3] was “binds” throughout.

B2: CRISP-3 (Cysteine Rich Secretory Protein-3) (protein, UniProt P54108 21-245)
chain: NEDKDPAFTALLTTQTQVQREIVNKHNELRRAVSPPARNMLKMEWNKEAAANAQKWANQCNYRHSNPKDRMTSLKCGENLYMSSASSSWSQAIQSWFDEYNDFDFGVGPKTPNAVVGHYTQVVWYSSYLVGCGNAYCPNQKVLKYYYVCQYCPAGNWANRLYVPYEQGAPCASCPDNCDDGLCTNGCKYEDLYSNCKSLKLTLTCKHQLVRDSCKASCNCSNSIY
On to B2, for which the binding result in assay [2] is reported as “binds”.

B3: Prostate Secretory Protein of 94 amino acids (PSP94) (protein, UniProt P08118 21-114)
chain: SCYFIPNEGVPGDSTRKCMDLKGNKHPINSEWQTDNCETCTCYETEISCCTLVSTPVGYDKDNCQRIFKKEDCKYIVVEKKDPKKTCSVSEWII
Take B3: the binding entry in assay [4], in assay [5] and in assay [6] was “binds” in each case.
